## Percent effect of library compounds

Protein sequences, listed by entry. Tags and fused reporters are not part of them. Residues count along the entry.
UniProt Q4DA54, 1-478: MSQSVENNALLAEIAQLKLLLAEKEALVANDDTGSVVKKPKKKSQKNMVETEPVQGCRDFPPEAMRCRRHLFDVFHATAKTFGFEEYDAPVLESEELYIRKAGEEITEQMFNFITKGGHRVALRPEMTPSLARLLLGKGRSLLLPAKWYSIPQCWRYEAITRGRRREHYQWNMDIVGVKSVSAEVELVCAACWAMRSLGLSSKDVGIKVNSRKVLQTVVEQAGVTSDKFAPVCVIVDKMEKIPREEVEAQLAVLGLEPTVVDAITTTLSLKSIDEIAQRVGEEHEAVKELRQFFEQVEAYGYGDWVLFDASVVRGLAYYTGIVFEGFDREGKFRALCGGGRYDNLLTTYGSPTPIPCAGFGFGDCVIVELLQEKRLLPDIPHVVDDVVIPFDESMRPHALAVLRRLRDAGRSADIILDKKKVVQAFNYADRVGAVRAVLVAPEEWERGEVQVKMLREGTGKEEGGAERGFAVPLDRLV

The values are deposited in ChEMBL (CHEMBL3988442, “University of Dundee, Small-Polar-MMV Screening Library” (2021)).

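Histidine-tRNA ligase, Trypanosoma cruzi CL Brener (UniProt Q4DA54). Enzyme assay of histidyl-tRNA synthetase; the read-out is not stated. Compounds at 30 µM. The record gives no direction; compounds that gave an IC50 in retests scored well above the rest, so higher reads as stronger inhibition. Of about 69,000 compounds tested this way, about 31 (0.045%) reached 50% or more in at least one test.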

Results are given as percent effect. How 0% and 100% were set is not recorded. Most values in the screen are low, and negative values occur. Compounds were drawn at random from those tested, without regard to their results.

Cc1cc(C(=O)N(Cc2c(C)nn(C)c2C)C(C)C)nc(C)n1 read -2.463%. COc1cccc(C2CCN(c3ccc4cc[nH]c4n3)C2)c1OC (stereo not drawn) read 15.64%. CCN1CCC(CNC(=O)C2(c3ccc(F)cc3)CC2)C1 (stereo not drawn) read 8.451%. COc1ccc(OC)c(CCNC(=O)CCC2CCCO2)c1 (stereo not drawn) gave 2.062%. For CCOc1cc(C)ccc1NC(=O)N(C)Cc1cnn(C)c1 the result was 1.504%. Cc1nc(C)n(CC2CN(Cc3cccc(C(N)=O)c3)CCO2)n1 (stereo not drawn) read 4.813%. Result for Cc1ccccc1-n1cc(CN(C)C[C@@H]2CCCN3CCCC[C@H]23)cn1 was 5.455%.

CCc1nnc(CN2CCCN(C(=O)c3ccccn3)CC2)o1 gave -4.202%. O=C(NCC1CCCO1)c1nc2c(s1)CCCN2C(=O)C1CC1 (stereo not drawn) gave 4.762%. For CCN(C)S(=O)(=O)N1CCC(C(O)c2ccc(Cl)cc2)CC1 (stereo not drawn) the result was 8.333%. With O=C(NCc1csc(Cc2ccccc2)n1)C1NCCc2[nH]cnc21 (stereo not drawn) the screen gave 0.9662%. CN(Cc1ccccc1)CC(O)Cn1cnc2ccsc2c1=O (stereo not drawn) read 0%. With CC(NC(=O)CN(C)S(C)(=O)=O)c1ccc(F)cc1 (stereo not drawn) the screen gave -4.615%. For CN(CC(=O)NCCC#N)C(c1ccccc1)c1ccc(F)cc1 (stereo not drawn) the result was 0%.

Cn1cc(CN2CCCC23CCN(C(=O)c2cccn2C)CC3)cn1 gave 0.5464%. For CC(=O)N1CCOC(c2c(C(=O)O)sc3ccccc23)C1 (stereo not drawn) the result was 5.639%. For COCCNC(=O)Cn1c(C)cc2nc(SC)n(CC(C)C)c(=O)c21 the result was 3.415%. For Cc1ccc(C(=O)N2C[C@H](OCc3cccnc3)[C@H]3COC[C@H]32)cn1 the result was 5.607%. With CC(C)c1csc(C(=O)N2CCCC(Cn3cc(CO)nn3)C2)n1 (stereo not drawn) the screen gave 7.018%. Result for CCOC(=O)Cc1csc(NC(=O)c2cc(=O)c(OC)c[nH]2)n1 was 1.754%. For CN(C)c1ncc(-c2cccc(C(N)=O)c2)c(C2CNCCO2)n1 (stereo not drawn) the result was 4.286%.

For Cn1cc(CN2CCCN(C(=O)c3ccc4ccccc4n3)CC2)cn1 the result was 4.399%. With CCC(C(=O)NC1CCN(S(C)(=O)=O)CC1)n1cccn1 (stereo not drawn) the screen gave 4.972%. O=C(CNc1cccc(CC(F)(F)F)c1)NCc1ccco1 read 3.448%. Result for CN1CCN(c2ccccc2NC(=O)NCCc2ccccc2)CC1 was 15.95%. CCc1nc(CN2CCCC(N(C)Cc3cnc(C)cn3)C2)no1 (stereo not drawn) gave 5.521%. Cc1ccc(F)cc1-n1c(COC(C)C)n[nH]c1=O gave 3.784%. Result for CCS(=O)(=O)CC(=O)Nc1ccccc1N1CCc2ccccc21 was 7.738%.

CCOc1cccc(CNc2ccccc2Cl)c1O gave 1.754%. CNc1nc(C(=O)N2CCCN(c3ccnc(C)c3)CC2)cs1 gave 5.473%. With O=C(Nc1ccc(F)cc1)N1CCC2(CCC(=O)N(C3CC3)C2)CC1 the screen gave 4.972%. CC(=O)N1CCCC2(CCN(C(=O)c3nccnc3N)CC2)C1 read 0.9709%. For COc1ncc(C(=O)N2CCC(c3nc(C)n4ccsc34)CC2)cn1 the result was -1.111%. Result for CCOCC1CCCN(C(=O)NCc2cn3c(C)cccc3n2)C1 (stereo not drawn) was 18.07%. Result for Cc1[nH]ccc1C(=O)N(C)C1CC(=O)N(Cc2ccccc2)C1=O (stereo not drawn) was -1.622%.

With Cc1nc(N(C)C)nc(N2CCC3(CC2)CNC(=O)O3)c1C the screen gave 6.061%. Cn1cc(C(=O)N2CCOc3ccccc32)ccc1=O gave 0.578%. For Cc1nc2c(c(=O)n1C)CN(C(=O)C1CCN(C(=O)C3CCC3)CC1)C2 the result was 0%. CCC(CC)C(CNC(=O)Nc1ccc(OC)cc1)N1CCOCC1 (stereo not drawn) gave -2.703%. CC(C)NC(=O)[C@H]1C[C@@H]2[C@@H](C1)OCCN2Cc1ccncc1 gave -0.4975%. CCS(=O)(=O)N1CCCC(Cc2cnccn2)C1 (stereo not drawn) read 0%. Result for Cn1ncc2c(NC3CCCN(C(=O)C4CC4)C3)nc(C(C)(C)C)nc21 (stereo not drawn) was 2.97%.

Result for COc1cccc([C@@H]2CCN(Cc3ccc4ccccc4n3)C[C@H]2O)c1 was 5.785%. Cc1nccn1-c1ccc(C(C)NCc2cc[nH]n2)cc1 (stereo not drawn) gave -1.478%. For CCC(C(=O)N(C)C)N1CCC(c2nccn2Cc2cscn2)CC1 (stereo not drawn) the result was -1.508%. For COc1ccc(-c2noc(CN3CCc4cncnc4C3)n2)cc1 the result was 5.703%. Cn1ccnc1COc1ccc(CSc2nncn2C2CC2)cc1 gave 3.093%. Cc1ccc(CN(C)C(=O)CN2CCCC2c2cnn(C)c2)cc1 (stereo not drawn) gave 9.278%. Result for Cc1nc(C)n(C2CCCN(C(=O)c3ccc(OC(C)C)nc3)C2)n1 (stereo not drawn) was 6.706%.

For Cc1cccc(C(=O)NCC2CCS(=O)(=O)C2)n1 (stereo not drawn) the result was 0.5405%. For Oc1ccccc1CN1CCCCCC1c1cccs1 (stereo not drawn) the result was 7.538%.

7 of the entries, repeated:

Compound	effect
CCOCC1CCCN(C(=O)NCc2cn3c(C)cccc3n2)C1 (stereo not drawn)	18.07
CN(C)c1ncc(-c2cccc(C(N)=O)c2)c(C2CNCCO2)n1 (stereo not drawn)	4.286
O=C(NCC1CCCO1)c1nc2c(s1)CCCN2C(=O)C1CC1 (stereo not drawn)	4.762
O=C(NCc1csc(Cc2ccccc2)n1)C1NCCc2[nH]cnc21 (stereo not drawn)	0.9662
CCC(C(=O)NC1CCN(S(C)(=O)=O)CC1)n1cccn1 (stereo not drawn)	4.972
Cn1cc(C(=O)N2CCOc3ccccc32)ccc1=O	0.578
Cc1ccc(C(=O)N2C[C@H](OCc3cccnc3)[C@H]3COC[C@H]32)cn1	5.607